We go through 39 molecules from PubChem BioAssay AID493014 (National Center for Advancing Translational Sciences (NCATS), 2011).

The other results are listed elsewhere or left out. Shown are side measurements of this screen, not its main read-out; they come without a call. Compounds called inactive in the main read-out are mostly missing here. Potencies come from curve fits of mixed quality, noted in brackets.

The nature of the experiment: qHTS Assay to Find Inhibitors of Chronic Active B-Cell Receptor Signaling. The note with it: ABC-DLBCL IkBa-CBG/CBR reporter, luminescence ratio (green luciferase fused to IkBa over red control in TMD8 lymphoma cells), 4 h. In outline: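 Concentration-response series (up to 46 uM) were applied to TMD8 dual-reporter cells for 4 h at 37C with doxycycline. Green/red ratio, after filter-overlap correction, defined %Activity; red signal alone was normalised to basal cells and zero luminescence.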
In general terms: In qHTS, concentration-response curves come from the screen itself.

The mark [1] stands for this setting: measured here: CBR red luminescence, cell number.
The mark [2] stands for this setting: measured here: IkBa-CBG green luminescence.

One may read the AC50 as the concentration giving half of the maximal activity seen. As for `CSc1nc(-c2ccccc2)nc(NC(=O)C(C)C)c1C(C)=O`, the AC50 under setting [1] is 1.78 µM [falling, full curve, poor fit].

As to `COc1ccc2nc(-c3ccc(N)cc3)[nH]c2c1`, the AC50 under setting [1] is 13 µM [falling, partial curve].

`Cc1cccc(NC(=O)Nc2ccc3c(c2)N(C)C(=O)CS3)n1`: the AC50 under setting [1] is 0.58 µM [rising, full curve, poor fit].

`O=C(N/N=C/c1ccc2c(c1)OCO2)C1CC1`: the AC50 under setting [1] was 22.4 µM [falling, partial curve, poor fit].

On to `CCCNC(=O)C(Cc1ccc(C(F)(F)P(=O)(OCC)OCC)cc1)NC(=O)c1ccc(C#N)cc1` (centres undefined), for which the AC50 under setting [1] was 18.4 µM [rising, single point].

`COc1ccc(/C=C\C(=O)Oc2cccc(/C=N/NC(=O)Cc3ccc(OC)c(OC)c3)c2)cc1`: the AC50 under setting [1] is 2.59 µM [rising, partial curve].

Take `CC(=O)c1sc(NC(=O)c2cc(S(=O)(=O)N3CCOCC3)ccc2F)nc1C`: the AC50 under setting [1] was 25.9 µM [falling, single point].

On to `CCCCCCOc1ccc(/C=C/C(=O)N2CCOCC2)cc1OC`, for which the half-maximal activity concentration (AC50) under setting [1] was 2.51 µM [rising, partial curve, poor fit].

For the molecule `COc1ccc(-c2cc(=O)oc3c(C)c(O)c(CN(C)C)cc23)cc1`, the AC50 under setting [1] is 1.41 µM [falling, full curve].

With `Cc1ccc(C(=O)O)cc1-c1ccc(C=C2C(=O)c3ccccc3C2=O)o1`, the AC50 under setting [1] is 11.2 µM [falling, partial curve, poor fit].

Turning to `O=C(Nc1nccs1)C12CC3CC(C1)CC(C(=O)Nc1nccs1)(C3)C2`, under setting [1], the half-maximal activity concentration (AC50) is 15.8 µM [falling, partial curve].

`COc1cc(/C=C/C(=O)OCC(=O)Nc2ccccc2Sc2ccc(Cl)cc2)ccc1O`: the AC50 under setting [1] is 29.1 µM [falling, single point].

As to `O=[N+]([O-])c1cccc(CNc2ccc3c(c2)CCC3)c1`, under setting [1], the AC50 is 8.2 µM [rising, partial curve, poor fit].

For the molecule `CC(=O)N(C)c1nc(-c2ccc(Cl)cc2)cs1`, the AC50 under setting [1] is 2.24 µM [rising, partial curve, poor fit].

`CCOC(=O)c1ccc(N2CCN(c3cccc(Cl)c3)CC2)c(NC(=O)Nc2ccc(OC)cc2OC)c1`: the AC50 under setting [1] is 1 µM [rising, partial curve, poor fit].

Take `COc1ccc(/C=C/C(=O)Nc2c(C)nn(C)c2C)cc1COc1ccc(Cl)cc1Br`: the AC50 under setting [1] is 2.31 µM [rising, partial curve].

`N/C(=N\OC(=O)CSc1ccccc1)c1cccc([N+](=O)[O-])c1`: the AC50 under setting [1] was 25.9 µM [rising, partial curve].

As for `CCOC(=O)c1c(NC(=S)Nc2ccccc2C)sc2c1CCC2`, the AC50 under setting [1] is 1.84 µM [rising, full curve].

For the molecule `O=C(NCCc1ccccc1)c1cc2sccc2n1Cc1ccccc1`, the AC50 under setting [1] was 12.6 µM [rising, single point].

On to `O=C(CC(c1ccccc1)c1ccccc1)Nc1ncn[nH]1`, for which the AC50 under setting [1] was 0.206 µM [falling, full curve].

As to `O=C(CCCc1ccccc1)Nc1cccc(C(=O)O)c1`, under setting [1], the AC50 is 0.316 µM [falling, full curve].

Regarding `NC(=S)NNC(=O)c1cccc(Cl)c1`, the AC50 under setting [1] was 31.6 µM [rising, partial curve, poor fit].

As for `COc1ccc(CCNC(=O)[C@H](C)N2C(=O)N3CCc4c([nH]c5ccccc45)[C@@]3(C)C2=O)cc1`, the AC50 under setting [1] is 25.1 µM [falling, partial curve, poor fit].

For `O=C(N/N=C(\c1ccccc1)c1cccnc1)c1cccc(F)c1`, the AC50 was 10 µM [rising, partial curve, poor fit] under setting [1] and 22.4 µM [falling, single point] under setting [2].

Take `O=C(Nc1cc2c3c(c1)CC(=O)N3CCC2)c1ccc(Br)cc1`: under setting [1], the AC50 is 0.291 µM [rising, full curve].

Turning to `Cc1ccc(Cl)cc1N1CCN(C(=S)NCc2ccco2)CC1`, the AC50 runs as follows: under setting [1], 35.5 µM [falling, single point]; under setting [2], 35.5 µM [rising, partial curve, poor fit].

Regarding `O=C(Nc1nnc(-c2ccco2)s1)c1ccccc1`, the AC50 under setting [1] was 3.16 µM [falling, partial curve, poor fit].

On to `Cc1ccc(CNC(=O)Nc2ccc(OC(F)(F)F)cc2)n1C`, for which the AC50 under setting [1] was 35.5 µM [rising, single point].

Regarding `COC(=O)c1[nH]c2ccccc2c1NC(=O)CN1CCN(C/C=C/c2ccccc2)CC1`, the AC50 runs as follows: under setting [1], 0.0891 µM [rising, full curve, poor fit]; under setting [2], 2.82 µM [falling, partial curve, poor fit].

With `O=C(Cn1cc2c(n1)CCCCC2)NCc1cccs1`, the AC50 under setting [1] was 35.5 µM [falling, single point].

In the case of `Cc1cc(C)cc(-n2c(SCC(=O)Nc3cccc(S(=O)(=O)NC4=NCCCCC4)c3)nc3ccccc3c2=O)c1`, the AC50 under setting [1] is 10.3 µM [falling, partial curve, poor fit].

For `Cn1c2ccccc2c(=O)n2c(=O)c3ccccc3cc12`, under setting [1], the AC50 was 15.8 µM [falling, partial curve].

Turning to `O=C(Nc1ccn(C2CC(OC(=O)c3ccccc3)C(CO)O2)c(=O)n1)c1ccccc1` (centres undefined), under setting [1], the AC50 was 12.6 µM [rising, partial curve, poor fit].

Take `CC(=O)Cn1c2ccccc2n2nc(CCC(=O)O)c(=O)nc12`: the AC50 under setting [1] was 35.5 µM [rising, single point].

Turning to `CSc1ccc(/C=C/C(=O)N2CCN(c3ccccn3)CC2)cc1`, the AC50 was 0.355 µM [falling, full curve] under setting [1] and 17.8 µM [falling, partial curve, poor fit] under setting [2].

Regarding `Nc1ccc(-c2cc(-c3cccc(N)c3)nc(-c3ccccc3)n2)cc1`, under setting [1], the half-maximal activity concentration (AC50) was 25.9 µM [falling, partial curve, poor fit].

Turning to `CN(C)c1ccc(C2Nc3cccc4cccc(c34)N2)cc1`, the AC50 under setting [1] was 35.5 µM [falling, single point].

Regarding `Cc1csc(N/N=C/c2ccccn2)n1`, the AC50 by setting is: under setting [1], 35.5 µM [falling, single point]; under setting [2], 35.5 µM [falling, partial curve, poor fit].

On to `Nn1cnnc1N/N=C/c1ccc(Cl)cc1Cl`, for which, under setting [1], the AC50 was 35.5 µM [falling, single point].
